No constants are given. Whether binding was seen depends on the method and setting.
Target: T1, OsSPX4 (rice) (UniProt Q10B79)
T1 sequence: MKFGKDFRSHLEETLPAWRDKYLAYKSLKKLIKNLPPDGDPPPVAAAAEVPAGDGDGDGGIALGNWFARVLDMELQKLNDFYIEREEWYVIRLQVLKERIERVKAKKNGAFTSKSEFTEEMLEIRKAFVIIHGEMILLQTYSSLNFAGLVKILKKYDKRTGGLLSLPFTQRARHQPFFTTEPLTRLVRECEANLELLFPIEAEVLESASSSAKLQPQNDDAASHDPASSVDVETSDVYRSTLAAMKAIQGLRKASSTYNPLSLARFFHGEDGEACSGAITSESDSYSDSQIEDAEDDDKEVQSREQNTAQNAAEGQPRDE
Test: two-hybrid; yeast two-hybrid (Y2H); no conditions, vectors or orientation told in the text shown

The chains behind the UniProt entries cited, without tags or fusion partners.
UniProt Q7XC27: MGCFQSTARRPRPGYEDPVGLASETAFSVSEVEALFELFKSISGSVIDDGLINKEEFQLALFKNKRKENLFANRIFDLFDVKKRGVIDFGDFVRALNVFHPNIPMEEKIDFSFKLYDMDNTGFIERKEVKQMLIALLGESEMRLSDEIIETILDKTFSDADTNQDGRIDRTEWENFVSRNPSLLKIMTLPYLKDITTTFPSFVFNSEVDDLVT

binding: no binding
Substance: Calcineurin B-like protein-1 (OsCBL1) (from UniProt Q7XC27 1-213)

Reference: publication PMC11891122
